{
  "source": "paper PMC4914320",
  "key": {"[1]": {"biological_target": "Telomeric repeat binding factor 2 (TRF2), endogenous (human (endogenous in C1, UTC8505, RD and HEK293T cells))", "assay": "proximity ligation; Duolink PLA in fixed, permeabilised C1 cells with antibodies to HMGA2 (D1A7), TRF2 and RAP1; a minimum of 30 nuclei quantified"}, "[2]": {"biological_target": "Telomeric repeat binding factor 2 (TRF2), endogenous (human (endogenous in C1, UTC8505, RD and HEK293T cells))", "assay": "co-IP; IP with antibody to HMGA2 or to TRF2 from nuclear extracts (C1, UTC8505 transfectants, RD); lysis buffer 50 mM Tris-HCl pH 7.5, 150 mM NaCl, 0.2% Triton X-100, 0.3% NP-40; 4°C; protein G-agarose/protein A-sepharose; IgG controls; cells with or without MMS, dox, or RAP1 siRNA"}},
  "note": "These are yes or no findings as the source states them, for the method shown. In cells and extracts the contact can be indirect. Binding calls can cover weak binding; strength is not graded here.",
  "data": [
    {"binder": "RAP1, endogenous (protein, UniProt Q9NYB0 1-399) MAEAMDLGKDPNGPTHSSTLFVRDDGSSMSFYVRPSPAKRRLSTLILHGGGTVCRVQEPGAVLLAQPGEALAEASGDFISTQYILDCVERNERLELEAYRLGPASAADTGSEAKPGALAEGAAEPEPQRHAGRIAFTDADDVAILTYVKENARSPSSVTGNALWKAMEKSSLTQHSWQSLKDRYLKHLRGQEHKYLLGDAPVSPSSQKLKRKAEEDPEAADSGEPQNKRTPDLPEEEYVKEEIQENEEAVKKMLVEATREFEEVVVDESPPDFEIHITMCDDDPPTPEEDSETQPDEEEEEEEEKVSQPEVGAAIKIIRQLMEKFNLDLSTVTQAFLKNSGELEATSAFLASGQRADGYPIWSRQDDIDLQKDDEDTREALVKKFGAQNVARRIEFRKK", "values": [
      {"measurement": "binding", "setting": "[1]", "value": "binds"},
      {"measurement": "binding", "setting": "[2]", "value": "binds"}
    ]}
  ]
}
